In patent publication US7323460B2, “N-(substituted benzyl)-8-hydroxy-1,6-naphthyridine-7-carboxamides useful as HIV integrase inhibitors” (Merck & Co., Inc., priority 2002, dated 2008):
Some results were stated once for a whole list of compounds, not compound by compound.

System: HIV
Experiment: Assay for inhibition of HIV replication (acute HIV infection of T-lymphoid cells)
Type: cell-based

## CNC(=O)c1cc(F)ccc1CNC(=O)c1nc(N2CCCCS2(=O)=O)c2cccnc2c1[O-].[K+] [Example 3C, Potassium 5-(1,1-dioxido-1,2-thiazinan-2-yl)-7-[({4-fluoro-2-[(methylamino)-carbonyl]benzyl}amino)carbonyl]-1,6-naphthyridin-8-olate]
  IC95, inhibition of HIV replication: less than 5 micromolar
